Assay results published in paper PMC3441895.
Results are given in words; binding and its absence hold for the method and conditions named. Binding seen in cells or lysates may run through a third protein. Some entries that bind do so weakly or less than the wild type. Tags and fused reporters may be left off the sequences shown.

Sequences of proteins named here, by UniProt entry; tags and fusion partners are left off.
UniProt P38249: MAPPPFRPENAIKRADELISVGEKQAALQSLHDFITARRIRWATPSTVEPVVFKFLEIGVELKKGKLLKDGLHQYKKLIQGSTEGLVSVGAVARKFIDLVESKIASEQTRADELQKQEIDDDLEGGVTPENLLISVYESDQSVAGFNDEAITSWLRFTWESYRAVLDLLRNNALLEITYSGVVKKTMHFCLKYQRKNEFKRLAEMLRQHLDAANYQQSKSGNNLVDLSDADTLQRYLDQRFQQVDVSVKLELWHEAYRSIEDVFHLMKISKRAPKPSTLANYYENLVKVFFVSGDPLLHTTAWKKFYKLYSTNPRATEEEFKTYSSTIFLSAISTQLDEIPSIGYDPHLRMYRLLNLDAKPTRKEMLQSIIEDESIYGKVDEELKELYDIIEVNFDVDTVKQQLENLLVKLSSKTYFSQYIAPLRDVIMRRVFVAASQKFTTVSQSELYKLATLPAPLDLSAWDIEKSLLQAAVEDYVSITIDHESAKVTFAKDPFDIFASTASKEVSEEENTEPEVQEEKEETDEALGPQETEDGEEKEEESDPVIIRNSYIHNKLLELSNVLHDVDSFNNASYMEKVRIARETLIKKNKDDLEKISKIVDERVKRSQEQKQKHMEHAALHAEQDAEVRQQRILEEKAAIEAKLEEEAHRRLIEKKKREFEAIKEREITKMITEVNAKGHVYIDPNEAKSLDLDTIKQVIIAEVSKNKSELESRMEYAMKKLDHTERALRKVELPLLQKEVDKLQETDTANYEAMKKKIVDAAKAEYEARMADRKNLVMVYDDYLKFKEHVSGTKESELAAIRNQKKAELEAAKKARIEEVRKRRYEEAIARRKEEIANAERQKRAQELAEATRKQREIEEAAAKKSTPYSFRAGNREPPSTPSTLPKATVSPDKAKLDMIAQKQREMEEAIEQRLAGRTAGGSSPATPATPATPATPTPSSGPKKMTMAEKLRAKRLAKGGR

Target: T1, TAP-tagged Yhr087wp (S. cerevisiae) (UniProt P38804)
T1 sequence: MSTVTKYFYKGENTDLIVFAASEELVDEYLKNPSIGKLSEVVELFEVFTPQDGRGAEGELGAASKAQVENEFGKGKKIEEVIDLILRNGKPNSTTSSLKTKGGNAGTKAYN
Assay: co-IP; lysate of cells transferred for 90 min to YP20 (50 mM Tris-HCl pH 8.0, 5 mM EDTA, 250 mM NaCl, 0.01% Triton X-100); Yhr087wp-TAP precipitated on Dynabeads IgG Pan Mouse, 2 h at 4°C; HA-tagged proteins detected by Western with anti-HA 3F10

Molecule | binding
HA-tagged Tif32p (from UniProt P38249 1-964) | binds
HA-tagged Sti1p (protein, UniProt P15705 1-589) MSLTADEYKQQGNAAFTAKDYDKAIELFTKAIEVSETPNHVLYSNRSACYTSLKKFSDALNDANECVKINPSWSKGYNRLGAAHLGLGDLDEAESNYKKALELDASNKAAKEGLDQVHRTQQARQAQPDLGLTQLFADPNLIENLKKNPKTSEMMKDPQLVAKLIGYKQNPQAIGQDLFTDPRLMTIMATLMGVDLNMDDINQSNSMPKEPETSKSTEQKKDAEPQSDSTTSKENSSKAPQKEESKESEPMEVDEDDSKIEADKEKAEGNKFYKARQFDEAIEHYNKAWELHKDITYLNNRAAAEYEKGEYETAISTLNDAVEQGREMRADYKVISKSFARIGNAYHKLGDLKKTIEYYQKSLTEHRTADILTKLRNAEKELKKAEAEAYVNPEKAEEARLEGKEYFTKSDWPNAVKAYTEMIKRAPEDARGYSNRAAALAKLMSFPEAIADCNKAIEKDPNFVRAYIRKATAQIAVKEYASALETLDAARTKDAEVNNGSSAREIDQLYYKASQQRFQPGTSNETPEETYQRAMKDPEVAAIMQDPVMQSILQQAQQNPAALQEHMKNPEVFKKIQTLIAAGIIRTGR | binds
HA-tagged Tif4631p (protein, UniProt P39935 1-952) MTDETAHPTQSASKQESAALKQTGDDQQESQQQRGYTNYNNGSNYTQKKPYNSNRPHQQRGGKFGPNRYNNRGNYNGGGSFRGGHMGANSSNVPWTGYYNNYPVYYQPQQMAAAGSAPANPIPVEEKSPVPTKIEITTKSGEHLDLKEQHKAKLQSQERSTVSPQPESKLKETSDSTSTSTPTPTPSTNDSKASSEENISEAEKTRRNFIEQVKLRKAALEKKRKEQLEGSSGNNNIPMKTTPENVEEKGSDKPEVTEKTKPAEEKSAEPEVKQETPAEEGEQGEKGQIKEESTPKVLTFAERLKLKKQQKEREEKTEGKENKEVPVQEETKSAIESAPVPPSEQVKEETEVAETEQSNIDESATTPAIPTKSDEAEAEVEAEAGDAGTKIGLEAEIETTTDETDDGTNTVSHILNVLKDATPIEDVFSFNYPEGIEGPDIKYKKEHVKYTYGPTFLLQFKDKLNVKADAEWVQSTASKIVIPPGMGRGNRSRDSGRFGNNSSRGHDFRNTSVRNMDDRANSRTSSKRRSKRMNDDRRSNRSYTSRRDRERGSYRNEEKREDDKPKEEVAPLVPSANRWVPKFKSKKTEKKLAPDGKTELLDKDEVERKMKSLLNKLTLEMFDAISSEILAIANISVWETNGETLKAVIEQIFLKACDEPHWSSMYAQLCGKVVKELNPDITDETNEGKTGPKLVLHYLVARCHAEFDKGWTDKLPTNEDGTPLEPEMMSEEYYAAASAKRRGLGLVRFIGFLYRLNLLTGKMMFECFRRLMKDLTDSPSEETLESVVELLNTVGEQFETDSFRTGQATLEGSQLLDSLFGILDNIIQTAKISSRIKFKLIDIKELRHDKNWNSDKKDNGPKTIQQIHEEEERQRQLKNNSRSNSRRTNNSSNRHSFRRDAPPASKDSFITTRTYSQRNSQRAPPPKEEPAAPTSTATNMFSALMGESDDEE | binds
HA-tagged Cdc33p (protein, UniProt P07260 1-213) MSVEEVSKKFEENVSVDDTTATPKTVLSDSAHFDVKHPLNTKWTLWYTKPAVDKSESWSDLLRPVTSFQTVEEFWAIIQNIPEPHELPLKSDYHVFRNDVRPEWEDEANAKGGKWSFQLRGKGADIDELWLRTLLAVIGETIDEDDSQINGVVLSIRKGGNKFALWTKSEDKEPLLRIGGKFKQVLKLTDDGHLEFFPHSSANGRHPQPSITL | binds
